Some of the results follow. Repeats are few or missing, and single values can be far off.

The subject of this assay is Geomyces destructans. Briefly: growth inhibition relative to DMSO control; higher = stronger growth inhibition. Conditions: 10 µM; 15 °C; incubation time 10 days.
Regarding `CCOC(=O)C(C)(C)Oc1ccc(Cl)cc1`, the growth inhibition was -9.44%. Next, `CO[C@@]1(NC(=O)CSCC#N)C(=O)N2C(C(=O)O)=C(CSc3nnnn3C)CS[C@@H]21`: -9.89%; `C[C@@H]1[C@H](O)[C@@H](C)/C=C/C=C/C=C/C=C/C=C/C=C/C=C/[C@H](O[C@@H]2O[C@H](C)[C@@H](O)[C@H](N)[C@@H]2O)C[C@@H]2O[C@](O)(C[C@@H](O)C[C@@H](O)[C@H](O)CC[C@@H](O)C[C@@H](O)CC(=O)O[C@H]1C)C[C@H](O)[C@H]2C(=O)O`: -1.04%. Next, `N=C(N)N/N=C/c1c(Cl)cccc1Cl`: 1.31%. Next, `OC(CCN1CCCCC1)(c1ccccc1)C1CCCCC1` (stereo not drawn): -19.4%; `O=C(OCc1ccccc1)c1ccccc1`: -1.27%; `CC(=O)O[C@@H]1C[C@H]2C(C)(C)CCC(=O)[C@]2(C)[C@H]2CC[C@@]3(C)[C@H](c4ccoc4)OC(=O)[C@H]4O[C@]43[C@@]21C`: 16.6%. With `CN(C)CCOC(=O)COc1ccc(Cl)cc1`, the growth inhibition came out at 5.83%.

As for `Cc1cc(O)c(C=O)c2c1C(=O)Oc1c(COC(=O)/C=C/C(=O)O)c(O)c(C(=O)O)c(C)c1O2`, the growth inhibition is 1.15%.

Regarding `Cc1cc(=O)c2c(O)c3c(cc2o1)OC(C)(C)CC3`, the growth inhibition is 4.1%. To `COC(=O)C[C@H]1C(C)(C)C(=O)[C@H]2CC3=C4CC(OC)O[C@@H](c5ccoc5)[C@@]4(C)CCC3[C@]1(C)C2=O` (stereo partly drawn) belongs 0.78%; to `COC(=O)C(N)CS` (stereo not drawn), -12.8%. Next, `CC(=O)OC1CCC2(O)CC1(C)CCC1C2CC1(C)C` (stereo not drawn): 0.773%; `CC1(C)CC[C@]2(C(=O)O)[C@H](O)C[C@]3(C)C(=CC[C@@H]4[C@@]5(C)CC[C@H](O)C(C)(C)[C@@H]5CC[C@]43C)[C@H]2C1`: -4.24%. Next, `Nc1cc(-c2ccncc2)c[nH]c1=O`: -26.1%. As for `CN(CCOc1ccc(CC2SC(=O)NC2=O)cc1)c1ccccn1` (stereo not drawn), the growth inhibition is -23.8%. To `CN(C)CC[C@@H](c1ccc(Cl)cc1)c1ccccn1` belongs -10.9%. Next, `COC(=O)[C@@H]1OC(=O)C2OC23[C@@]1(C)CCC1[C@@]2(C)CCC(=O)C(C)(C)C2C[C@@H](OC(C)=O)[C@]13C` (stereo partly drawn): 2.6%; `Cn1c([N+](=O)[O-])cnc1COC(N)=O`: 4.82%; `Nc1nc2ncc(C(=O)O)nc2c(=O)[nH]1`: -12.3%. To `CCCCCCCCCCCCCCCCCC(=O)OC(CC(=O)O)C[N+](C)(C)C` (stereo not drawn) belongs -16.7%; to `CN(C)[C@@H]1C(O)=C(C(N)=O)C(=O)[C@@]2(O)C(O)=C3C(=O)c4c(O)ccc(Cl)c4[C@@H](O)[C@H]3C[C@@H]12`, -2.62%. For the molecule `OC[C@H]1O[C@@H](O[C@@H]2[C@@H](CO)OC(O)(CO)[C@H]2O)[C@H](O)[C@@H](O)[C@H]1O` (mixture of isomers), the growth inhibition is -4.5%.
